Data from patent publication US20260199510A1 (priority 2023, published 2026).

Test: peptide synthesis
Settings: conjugation step

**Q.** For “4—((S)-2-((tert-butoxycarbonyl)amino) propanamido)benzyl 2-((2S, 4R)-4-(2-((6S, 9R, 11R)-6-((S)-sec-butyl)-9-isopropyl-2, 3, 3, 8-tetramethyl-4, 7, 13-trioxo-12-oxa-2, 5, 8-triazatetradecan-11-yl) thiazole-4-carboxamido)-2-methyl-5-phenylpentanoyl) hydrazine-1-carboxylate”, which conjugation yield is on record?
**A.** Its conjugation yield is 29% yield.

Same assay, conditions: coupling step

**Q.** For “(R)-4-(2-((6S, 9R, 11R)-6-((S)-sec-butyl)-9-isopropyl-2, 3, 3, 8-tetramethyl-4, 7, 13-trioxo-12-oxa-2, 5, 8-triazatetradecan-11-yl) thiazole-4-carboxamido)-5-(4-hydroxy-3-((5S, 8S)-5-isopropyl-8-methyl-3, 6, 9-trioxo-1-phenyl-2-oxa-4, 7, 10-triazadodecan-12-amido)phenyl) pentanoic acid”, which step yield is on record?
**A.** Its step yield is 100% yield.

**Q.** Which step yield does the source give for “(R)-5-(3-((S)-2-((S)-2-(((benzyloxy) carbonyl)amino)-3-methylbutanamido) propanamido)-4-hydroxyphenyl)-4-(2-((6S, 9R, 11R)-6-((S)-sec-butyl)-9-isopropyl-2, 3, 3, 8-tetramethyl-4, 7, 13-trioxo-12-oxa-2, 5, 8-triazatetradecan-11-yl) thiazole-4-carboxamido) pentanoic acid” here?
**A.** Its step yield is 102% yield.

**Q.** Which step yield does the source give for “benzyl (5S, 8S, 11S, 14S)-5-(4-(4-(tert-butoxycarbonyl)benzamido)butyl)-8, 11, 14-trimethyl-3, 6, 9, 12-tetraoxo-1-phenyl-2-oxa-4, 7, 10, 13-tetraazapentadecan-15-oate” here?
**A.** The step yield was 100% yield.

**Q.** Which step yield does the source give for “benzyl (8S, 1 1S, 14S)-14-((tert-butoxycarbonyl)amino)-1-(((S)-4, 11-diethyl-8-fluoro-4-hydroxy-3, 14-dioxo-3, 4, 12, 14-tetrahydro-1H-pyrano[3′, 4′:6, 7]indolizino[1, 2-b]quinolin-9-yl)oxy)-11-isopropyl-8-methyl-4, 7, 10, 13-tetraoxo-3, 6, 9, 12-tetraazaheptadecan-17-oate” here?
**A.** The step yield was 92% yield.

**Q.** Which step yield does the source give for “tert-butyl (S)-5-(((S)-1-(benzyloxy)-3-methyl-1-oxobutan-2-yl)amino)-4-(((benzyloxy) carbonyl)amino)-5-oxopentanoate” here?
**A.** The step yield was 68%.

Same assay, conditions: late stage modification step

**Q.** Which step yield does the source give for “2-((2S, 5R, 8S, 11S)-8-(4-aminobutyl)-5-benzyl-11-(3-guanidinopropyl)-3, 6, 9, 12, 15-pentaoxo-1, 4, 7, 10, 13-pentaazacyclopentadecan-2-yl)acetic acid” here?
**A.** Its step yield is 90%.

**Q.** For “4-(((4S, 7S, 10S, 13S)-13-(((benzyloxy) carbonyl)amino)-4, 7, 10-trimethyl-3, 6, 9, 12-tetraoxo-1-phenyl-2-oxa-5, 8, 11-triazaheptadecan-17-yl) carbamoyl)benzoic acid”, which step yield is on record?
**A.** The step yield was 95% yield.

**Q.** Which step yield does the source give for “(8S, 11S, 14S)-14-((tert-butoxycarbonyl)amino)-1-(((S)-4, 11-diethyl-8-fluoro-4-hydroxy-3, 14-dioxo-3, 4, 12, 14-tetrahydro-1H-pyrano[3′, 4′:6, 7]indolizino[1, 2-b]quinolin-9-yl)oxy)-11-isopropyl-8-methyl-4, 7, 10, 13-tetraoxo-3, 6, 9, 12-tetraazaheptadecan-17-oic acid” here?
**A.** Its step yield is 104% yield.

**Q.** For “(R)-5-(3-(2-((S)-2-((S)-2-amino-3-methylbutanamido) propanamido) acetamido)-4-hydroxyphenyl)-4-(2-((6S, 9R, 11R)-6-((S)-sec-butyl)-9-isopropyl-2, 3, 3, 8-tetramethyl-4, 7, 13-trioxo-12-oxa-2, 5, 8-triazatetradecan-11-yl) thiazole-4-carboxamido) pentanoic acid”, which step yield is on record?
**A.** Its step yield is 38% yield.

**Q.** With “N6-(4-(((22S, 26S)-22, 26-bis(tert-butoxycarbonyl)-31, 31-dimethyl-10, 19, 24, 29-tetraoxo-3, 6, 30-trioxa-9, 18, 23, 25-tetraazadotriacontyl) carbamoyl)benzoyl)-L-lysyl-L-alanyl-L-alanyl-L-alanine” as the substance, how does the step yield read?
**A.** The step yield was 94% yield.
